The source of these data is paper doi:10.1101/2021.05.10.443506.

Protein sequences, listed by entry. Tags and fused reporters are not part of them.
UniProt P12270: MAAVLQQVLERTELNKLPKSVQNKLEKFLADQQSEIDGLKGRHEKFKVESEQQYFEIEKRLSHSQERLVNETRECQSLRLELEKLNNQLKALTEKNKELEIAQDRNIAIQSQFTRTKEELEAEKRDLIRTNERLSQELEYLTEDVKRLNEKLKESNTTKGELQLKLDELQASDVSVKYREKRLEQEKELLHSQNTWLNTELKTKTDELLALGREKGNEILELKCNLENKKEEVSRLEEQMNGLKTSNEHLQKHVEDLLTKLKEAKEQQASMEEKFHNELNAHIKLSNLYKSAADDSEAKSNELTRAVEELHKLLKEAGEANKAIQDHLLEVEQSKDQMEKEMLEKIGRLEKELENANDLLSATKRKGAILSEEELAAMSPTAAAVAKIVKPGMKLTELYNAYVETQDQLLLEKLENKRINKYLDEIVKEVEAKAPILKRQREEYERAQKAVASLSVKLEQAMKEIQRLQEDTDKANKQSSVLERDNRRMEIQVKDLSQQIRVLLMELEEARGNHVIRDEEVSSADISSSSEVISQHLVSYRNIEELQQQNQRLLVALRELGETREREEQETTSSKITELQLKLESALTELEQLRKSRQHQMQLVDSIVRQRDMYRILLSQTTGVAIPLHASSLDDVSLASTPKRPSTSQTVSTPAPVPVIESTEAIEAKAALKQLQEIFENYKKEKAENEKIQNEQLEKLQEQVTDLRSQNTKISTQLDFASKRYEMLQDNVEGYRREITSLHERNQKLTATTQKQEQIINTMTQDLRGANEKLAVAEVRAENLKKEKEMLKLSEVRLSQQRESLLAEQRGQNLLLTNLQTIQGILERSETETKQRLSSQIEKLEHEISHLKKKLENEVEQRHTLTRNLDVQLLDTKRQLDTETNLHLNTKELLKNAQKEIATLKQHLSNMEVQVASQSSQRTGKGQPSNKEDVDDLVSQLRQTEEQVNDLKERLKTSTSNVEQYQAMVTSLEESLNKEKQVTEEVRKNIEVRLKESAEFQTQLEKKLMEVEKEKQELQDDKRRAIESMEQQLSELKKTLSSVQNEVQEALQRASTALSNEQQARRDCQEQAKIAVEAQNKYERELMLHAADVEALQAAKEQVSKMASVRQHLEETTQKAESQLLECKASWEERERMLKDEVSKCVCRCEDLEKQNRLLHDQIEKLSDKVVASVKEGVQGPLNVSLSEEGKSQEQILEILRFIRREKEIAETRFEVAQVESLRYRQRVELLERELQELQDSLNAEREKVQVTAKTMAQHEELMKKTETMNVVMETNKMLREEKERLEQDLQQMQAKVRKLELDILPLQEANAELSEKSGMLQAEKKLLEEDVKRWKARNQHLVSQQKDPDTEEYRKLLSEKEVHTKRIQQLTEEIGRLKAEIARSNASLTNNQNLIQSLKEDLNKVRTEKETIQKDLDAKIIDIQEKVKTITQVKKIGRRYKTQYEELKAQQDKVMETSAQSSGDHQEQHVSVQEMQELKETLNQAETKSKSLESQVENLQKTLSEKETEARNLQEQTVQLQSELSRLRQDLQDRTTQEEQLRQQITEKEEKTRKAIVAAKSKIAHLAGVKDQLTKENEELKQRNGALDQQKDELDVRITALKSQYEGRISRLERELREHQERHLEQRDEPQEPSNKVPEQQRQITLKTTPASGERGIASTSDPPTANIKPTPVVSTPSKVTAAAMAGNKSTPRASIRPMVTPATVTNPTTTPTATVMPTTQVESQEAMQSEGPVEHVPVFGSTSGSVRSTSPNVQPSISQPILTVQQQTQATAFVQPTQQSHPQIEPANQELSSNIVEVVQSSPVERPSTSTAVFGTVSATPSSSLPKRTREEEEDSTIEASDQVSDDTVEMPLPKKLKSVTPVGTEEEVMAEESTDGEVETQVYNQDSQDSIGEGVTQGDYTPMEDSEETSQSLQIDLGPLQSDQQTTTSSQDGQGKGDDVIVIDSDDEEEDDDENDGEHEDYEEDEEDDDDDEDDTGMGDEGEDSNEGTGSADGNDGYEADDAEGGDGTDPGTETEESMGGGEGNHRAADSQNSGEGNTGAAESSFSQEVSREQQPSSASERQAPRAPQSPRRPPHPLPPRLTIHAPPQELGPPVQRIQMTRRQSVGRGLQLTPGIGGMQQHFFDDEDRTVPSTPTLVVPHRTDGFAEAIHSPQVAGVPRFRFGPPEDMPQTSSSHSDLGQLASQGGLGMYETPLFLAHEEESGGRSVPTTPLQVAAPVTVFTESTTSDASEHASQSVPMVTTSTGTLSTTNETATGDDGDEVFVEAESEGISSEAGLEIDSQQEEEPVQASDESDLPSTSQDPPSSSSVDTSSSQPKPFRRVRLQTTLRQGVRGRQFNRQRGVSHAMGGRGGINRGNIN

These are yes or no findings as the source states them, for the method shown. Binding seen in cells or lysates may run through a third protein. Some entries that bind do so weakly or less than the wild type.

The target of this experiment is nucleoporin TPR (human (endogenous in U2OS)) (UniProt P12270). The experiment in a line: proximity ligation.

B1: CTCF (protein, UniProt P49711 1-727)
chain: MEGDAVEAIVEESETFIKGKERKTYQRRREGGQEEDACHLPQNQTDGGEVVQDVNSSVQMVMMEQLDPTLLQMKTEVMEGTVAPEAEAAVDDTQIITLQVVNMEEQPINIGELQLVQVPVPVTVPVATTSVEELQGAYENEVSKEGLAESEPMICHTLPLPEGFQVVKVGANGEVETLEQGELPPQEDPSWQKDPDYQPPAKKTKKTKKSKLRYTEEGKDVDVSVYDFEEEQQEGLLSEVNAEKVVGNMKPPKPTKIKKKGVKKTFQCELCSYTCPRRSNLDRHMKSHTDERPHKCHLCGRAFRTVTLLRNHLNTHTGTRPHKCPDCDMAFVTSGELVRHRRYKHTHEKPFKCSMCDYASVEVSKLKRHIRSHTGERPFQCSLCSYASRDTYKLKRHMRTHSGEKPYECYICHARFTQSGTMKMHILQKHTENVAKFHCPHCDTVIARKSDLGVHLRKQHSYIEQGKKCRYCDAVFHERYALIQHQKSHKNEKRFKCDQCDYACRQERHMIMHKRTHTGEKPYACSHCDKTFRQKQLLDMHFKRYHDPNFVPAAFVCSKCGKTFTRRNTMARHADNCAGPDGVEGENGGETKKSKRGRKRKMRSKKEDSSDSENAEPDLDDNEDEEEPAVEIEPEPEPQPVTPAPPPAKKRRGRPPGRTNQPKQNQPTAIIQVEDQNTGAIENIIVEVKKEPDAEPAEGEEEEAQPAATDAPNGDLTPEMILSMMDR
On to B1, for which the binding entry was “binds”.
